{
  "source": "PubChem BioAssay AID485314",
  "about": "(National Center for Advancing Translational Sciences (NCATS), 2010)",
  "note": "In all, about 340,000 compounds went through this assay and about 4,500 (1.3%) were called active. This list was built around the results that the source calls inconclusive (neither active nor inactive); the mix of calls is not that of the screen. The call rests on the fitted dose curve; in most records, active means well fitted inhibition curve with a large enough effect; inconclusive means small, poorly fitted or top-dose-only effect, or another doubt; inactive means no such curve, though single readings can be large or run the other way. A potency beside an inconclusive call is a rough fit, not a confirmed value. On the % scale 0 is the no-effect control and ±100 the full control effect; potency means the concentration at half of the fitted maximal effect.",
  "data": [
    {"target": "DNA polymerase beta (Homo sapiens) (UniProt P06746)", "assay": "qHTS Assay for Inhibitors of DNA Polymerase Beta", "details": "Pol beta primer extension/strand displacement, fluorescence kinetic; activity change, negative = inhibition: at 114 µM (top of the series)", "procedure,_shortened": "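Homogeneous kinetic assay of primer extension and strand displacement by 10 nM Pol beta, preincubated 15 min at room temperature with compound before 50 nM substrate (final) was added. Read at 0 and 10 min; four-parameter Hill fit.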", "values": [
      {"smiles": "CCOc1ccc(/C=C2\\SC(=S)N(C)C2=O)cc1OC", "activity change, negative = inhibition": "inactive: -7.37%"},
      {"smiles": "CC(=O)c1cc(-c2ccc(F)cc2)n(CCC(=O)NCc2ccccc2C)c1C", "activity change, negative = inhibition": "inactive: 25.3%"},
      {"smiles": "CCOC(=O)CNC(=O)Nc1cc(C(=O)NCc2cccc(F)c2)ccc1N1CCCC1", "Potency": "inconclusive: 89.1 µM [inhibitor, single point]"},
      {"smiles": "O=C(N/N=C/c1cn(Cc2ccccc2)c2ccccc12)c1cc(O)cc(O)c1", "Potency": "active: 31.6 µM"},
      {"smiles": "O=C(N/N=C\\c1ccc(F)cc1)c1ccc(Cn2cc(Br)c([N+](=O)[O-])n2)o1", "Potency": "inconclusive: 25.1 µM [inhibitor, full curve, poor fit]"},
      {"smiles": "C/C(=N\\NC(=O)c1cc2ccccc2cc1O)c1cccs1", "Potency": "inconclusive: 89.1 µM [inhibitor, single point]"},
      {"smiles": "COc1ccc(-c2oc3c(CC=C(C)C)c(O[C@@H]4O[C@H](CO)[C@@H](O)[C@H](O)[C@H]4O)cc(O)c3c(=O)c2O[C@@H]2O[C@@H](C)[C@H](O)[C@@H](O)[C@H]2O)cc1", "Potency": "inconclusive: 63.1 µM [inhibitor, single point]"},
      {"smiles": "CCCCCCOc1ccc(OC(=O)c2cccnc2)cc1", "Potency": "inconclusive: 28.2 µM [inhibitor, partial curve, poor fit]"},
      {"smiles": "O=C1OCC(c2ccccc2)=C1c1ccc(S(=O)(=O)N2CCOCC2)s1", "Potency": "inconclusive: 12.6 µM [inhibitor, full curve]"},
      {"smiles": "CCOC(=O)c1cccc(NC(=O)c2ccc3c(c2)C(=O)N(CC2CCCO2)C3=O)c1", "note": "(stereo not given)", "Potency": "inconclusive: 100 µM [inhibitor, single point]"},
      {"smiles": "Cc1ccc(-c2cc(C(=O)N3CC(C)CC(C)C3)c3ccccc3n2)o1", "note": "(stereo not given)", "Potency": "active: 39.8 µM"},
      {"smiles": "Cc1ccc(NCc2cccn2-c2nnc(N3CCCCCC3)s2)cc1", "activity change, negative = inhibition": "inactive: -10.1%"},
      {"smiles": "COc1ccc(-c2nnc(SCC(=O)Nc3cccc(F)c3)s2)cc1", "Potency": "active: 35.5 µM"},
      {"smiles": "Cc1nnc(NC(=O)C2CCCN2S(=O)(=O)c2ccc(Cl)cc2)s1", "note": "(stereo not given)", "Potency": "inconclusive: 5.01 µM [inhibitor, single point]"},
      {"smiles": "O=C(Nc1ccc(Nc2ccncc2)cc1)c1ccc([N+](=O)[O-])cc1", "Potency": "inconclusive: 100 µM [inhibitor, single point]"},
      {"smiles": "Cc1ccc(NC(=O)CN2C(=O)S/C(=C\\c3cc(C)n(-c4ccc(C(=O)O)cc4)c3C)C2=O)cc1", "Potency": "active: 79.4 µM"},
      {"smiles": "O=C(COc1ccc(/C=N/NC(=O)c2cc3ccccc3o2)cc1Cl)Nc1ccccc1", "Potency": "inconclusive: 1.78 µM [inhibitor, full curve]"},
      {"smiles": "C/C(=N/NC(=O)c1cc(-c2ccc(Br)s2)[nH]n1)c1ccco1", "Potency": "inconclusive: 79.4 µM [inhibitor, single point]"},
      {"smiles": "CC(=O)Nc1nnc(SCc2cc(=O)c3cc(C)ccc3[nH]2)s1", "Potency": "active: 39.8 µM"},
      {"smiles": "CC(=O)c1cc(CN2CCN(CCC(C)C)C(CCO)C2)cs1", "note": "(stereo not given)", "Potency": "inconclusive: 89.1 µM [inhibitor, single point]"},
      {"smiles": "COc1ccc(N=N/C(=C\\O)C(=O)c2ccco2)cc1", "Potency": "inconclusive: 25.1 µM [inhibitor, full curve]"},
      {"smiles": "Cc1nnc(NC(=O)c2nc(S(=O)(=O)Cc3ccccc3C)ncc2Cl)s1", "activity change, negative = inhibition": "inconclusive: -87.6% [inhibitor]"},
      {"smiles": "COc1ccc(N2CCN(C(=O)C(CCSC)N=C3NS(=O)(=O)c4ccccc43)CC2)cc1", "note": "(stereo not given)", "Potency": "inconclusive: 79.4 µM [inhibitor, single point]"},
      {"smiles": "Oc1cc(Br)ccc1C=Nc1ccc(N2CCCCC2)cc1", "activity change, negative = inhibition": "inactive: 12.5%"},
      {"smiles": "CCOc1ccc2[nH]cc(S(=O)(=O)c3ccc(Cl)cc3)c(=O)c2c1", "Potency": "inconclusive: 14.1 µM [inhibitor, partial curve]"},
      {"smiles": "Cc1csc2nc(COC(=O)c3ccccc3NC(=O)c3ccc(C(C)(C)C)cc3)cc(=O)n12", "activity change, negative = inhibition": "inactive: 2.12%"},
      {"smiles": "COCCNC(=O)Nc1ccc2nc(-c3ccco3)c(-c3ccco3)nc2c1", "Potency": "active: 2.24 µM"},
      {"smiles": "CCCCNC(=O)c1cc2c(-c3ccc(Cl)cc3)nn(C)c2s1", "activity change, negative = inhibition": "inactive: 0.834%"},
      {"smiles": "OCC1(Cc2ccc(Cl)cc2)CCN(Cc2ccccc2F)CC1", "activity change, negative = inhibition": "inactive: 28.4%"},
      {"smiles": "COc1cc(NC(=O)c2csc(N)n2)cc(C(=O)Nc2cccc(C(F)(F)F)c2)c1", "Potency": "inconclusive: 89.1 µM [inhibitor, single point]"},
      {"smiles": "Cc1ccc(-c2nc3ncccc3o2)cc1NC(=O)c1cccs1", "Potency": "inconclusive: 2.82 µM [inhibitor, full curve]"},
      {"smiles": "COCCSc1nnc(NC(=O)c2ccc3c(c2)OCO3)s1", "Potency": "inconclusive: 39.8 µM [inhibitor, single point]"},
      {"smiles": "O=C(Nc1nnc(SCc2c(Cl)cccc2Cl)s1)c1ccc2ncsc2c1", "Potency": "inconclusive: 1.26 µM [inhibitor, full curve, poor fit]"},
      {"smiles": "O=C(O)CCCNc1cc(N2CCN(C(=O)c3ccco3)CC2)c2noc3c2c1C(=O)c1ccccc1-3", "Potency": "active: 15.8 µM"},
      {"smiles": "Cc1cccc(-n2nc(C)c(C(=O)Nc3cc(C)ccc3C)c2-n2cccc2)c1", "activity change, negative = inhibition": "inactive: 0.121%"},
      {"smiles": "O=c1c(O)cccc2cc(O)c(O)c(O)c12", "Potency": "active: 0.158 µM"},
      {"smiles": "Clc1ccccc1Cn1c(/C=C/c2ccco2)nc2ccccc21", "Potency": "inconclusive: 25.1 µM [inhibitor, partial curve]"},
      {"smiles": "On1nnc2ccccc21", "Potency": "inconclusive: 8.91 µM [inhibitor, full curve, poor fit]"},
      {"smiles": "O=C(Cc1ccc(-n2cccc2)cc1)N1CCc2ccccc21", "Potency": "active: 22.4 µM"},
      {"smiles": "Cc1ccc(-n2c(O)c(C=NC3CCS(=O)(=O)C3)c3ccccc3c2=O)c(C)c1", "note": "(stereo not given)", "Potency": "inconclusive: 5.62 µM [inhibitor, full curve, poor fit]"},
      {"smiles": "OC[C@H]1O[C@@H](n2cnc3c(Nc4ccccc4)ncnc32)[C@H](O)[C@H]1O", "activity change, negative = inhibition": "inactive: 6.59% [at 57.1 µM]"},
      {"smiles": "CCOc1cccc2sc(N(Cc3cccnc3)C(=O)c3ccc(C#N)cc3)nc12", "activity change, negative = inhibition": "inactive: -8.65%"},
      {"smiles": "CCn1nnnc1SCC(=O)c1ccc(C)cc1", "Potency": "inconclusive: 100 µM [inhibitor, single point]"},
      {"smiles": "CC(C)OCC(O)Cn1c(N2CCCC2)nc2c1c(=O)n(C)c(=O)n2C", "note": "(stereo not given)", "Potency": "inconclusive: 89.1 µM [inhibitor, single point]"},
      {"smiles": "COc1ccc(Cl)cc1NC(=S)NNC(=O)C1(C)CC1(Cl)Cl", "note": "(stereo not given)", "activity change, negative = inhibition": "inactive: 5.68%"}
    ]}
  ]
}
